Measurements as given in the supplement of paper PMC8975748.
Where a name gives a salt, the structure may show the parent alone. ± gives the standard deviation of the averaged measurements. The list shows a part of the results. These are raw signals, not scaled to a control.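 The yeast community starts from one strain carrying four plasmids, each with an amino-acid or uracil synthesis gene and a fluorescent protein. Random plasmid loss creates mixed prototroph and auxotroph subpopulations. Cells were fixed and counted by automated confocal fluorescence imaging, and DMSO-treated wells served as the vehicle reference.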

Tested on: Saccharomyces cerevisiae BY4741 SeMeCo community
Test: imaged cell count per well (cells); higher = more cells
Conditions: 10 µM; 24 h; SM minimal medium
Description: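 Same SeMeCo high-content imaging drug screen: Selleck FDA-approved drugs at 10 µM, 24 h in SM medium, 384-well plates, 3 replicates.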

Compound | imaged cell count per well
NCCNc1ccc(NCCN)c2c1C(=O)c1ccncc1C2=O [Pixantrone Maleate] | 20800 ± 3800
CO[C@@]1(NC(=O)Cc2cccs2)C(=O)N2C(C(=O)O)=C(COC(N)=O)CS[C@@H]21 [Cefoxitin sodium] | 24600 ± 9100
N[C@H]1CONC1=O [L-Cycloserine] | 12600 ± 2200
Cc1cc(NS(=O)(=O)c2ccc(N)cc2)nc(C)n1 [sulfaisodimidine] | 27500 ± 6300
N=C(N)NS(=O)(=O)c1ccc(N)cc1 [Sulfaguanidine] | 27800 ± 5600
Nc1ccc(S(=O)(=O)Nc2ccccn2)cc1 [Sulfapyridine] | 29000 ± 2300
CC1=C(C(=O)O)N2C(=O)[C@@H](NC(=O)[C@H](N)C3=CCC=CC3)[C@H]2SC1 [Cefradine] | 21500 ± 3300
O=[N+]([O-])c1ccc(O)c2ncccc12 [Nitroxoline] | 738 ± 200
CCN1CC(CCN2CCOCC2)C(c2ccccc2)(c2ccccc2)C1=O (centres undefined) [Doxapram HCl] | 24000 ± 4200
OCCN1CCN(CCCN2c3ccccc3Sc3ccc(C(F)(F)F)cc32)CC1 [Fluphenazine dihydrochloride] | 20800 ± 5500
CCOC(=O)C1=C[C@@H](OC(CC)CC)[C@H](NC(C)=O)[C@@H](N)C1 [Oseltamivir Phosphate] | 24200 ± 2700
CCCc1nn(C)c2c(=O)[nH]c(-c3cc(S(=O)(=O)N4CCN(C)CC4)ccc3OCC)nc12 [Sildenafil Citrate] | 23700 ± 3200
CCCNC(C)C(=O)Nc1ccccc1C (centres undefined) [Prilocaine] | 18600 ± 8700
NCCc1ccc(O)c(O)c1 [Dopamine HCl] | 26800 ± 6400

Two consecutive compounds out of the list so far, quoted:
Compound | imaged cell count per well
NCCNc1ccc(NCCN)c2c1C(=O)c1ccncc1C2=O [Pixantrone Maleate] | 20800 ± 3800
CO[C@@]1(NC(=O)Cc2cccs2)C(=O)N2C(C(=O)O)=C(COC(N)=O)CS[C@@H]21 [Cefoxitin sodium] | 24600 ± 9100
